Values from PubChem BioAssay AID1224830 (NIAID, 2016)
Aim: 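Regulators of TLR4 signalling towards TNF-alpha in macrophage-like cells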 (primary screen). Cells: human THP-1 monocytic leukaemia cells, TNF dual-luciferase reporter clone, PMA-differentiated to macrophage-like cells. Reagent: siRNA pool against human genes, 50 nM. Duration: LPS for 4 h, given about 3 days after siRNA transfection. Conditions: bacterial LPS (TLR4 ligand), 10 ng/ml. Detection: 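Ratio of firefly to renilla light, scaled to the plate median and expressed as a robust z-score per replicate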. Direction: TNF reporter robust z-score: higher = stronger TNF reporter response to LPS. Hit rule: 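Each well counts as active if its z-score is over 2.8 or under -1.5; controls are left without a call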.
Here is an unselected part of about 18,000 reagents tested. Over the whole deposit, about 2,900 (16%) were called active. 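Calls are made per well; low scores hint the gene aids the LPS response, high scores that it dampens it.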 A number with no mark means an inactive call. Repeated entries: four replicate wells of each siRNA pool.

target gene,TNF reporter robust z-score
TRDMT1,0.84
TRDMT1,1.16
TRDMT1,0.36
TRDMT1,1.15
LPCAT3,1.24
LPCAT3,1.23
LPCAT3,0.89
LPCAT3,0.35
C3,1.57
C3,2.55
C3,1.76
C3,1.15
ADAMTS3,-1.15
ADAMTS3,0.33
ADAMTS3,-0.45
ADAMTS3,-1.04
CRIPAK (retired record),1.1
CRIPAK (retired record),1.96
CRIPAK (retired record),0.89
CRIPAK (retired record),1.3
CCDC78,-1.75 (active)
CCDC78,-1.96 (active)
CCDC78,-1.94 (active)
CCDC78,-1.54 (active)
USP1,0.28
USP1,-1.16
USP1,-1.14
USP1,-0.3
GEM,-0.65
GEM,-0.69
GEM,-2.01 (active)
GEM,-0.06

The list goes on, starting with the last 4 of the part before.
target gene,TNF reporter robust z-score
GEM,-0.65
GEM,-0.69
GEM,-2.01 (active)
GEM,-0.06
ZNF10,-1.53 (active)
ZNF10,-0.75
ZNF10,-0.86
ZNF10,1.26
ZNF347,-0.11
ZNF347,-0.64
ZNF347,-0.32
ZNF347,-0.66
CFHR3,0.42
CFHR3,0.1
CFHR3,1.28
CFHR3,-0.77
INPP5J,-1.28
INPP5J,-1.27
INPP5J,-1.34
INPP5J,-0.35
